According to article PMC3516536:
No constants are given. Whether binding was seen depends on the method and setting. In cells and extracts the contact can be indirect. Here binding means that the protein was enriched with, or labelled near, the bait; the list need not be complete.

Amino acid sequences for entries named in this document (tags omitted). A change or cut given only in a name is not applied to a line headed by its entry.
UniProt A0A1D8PJ17: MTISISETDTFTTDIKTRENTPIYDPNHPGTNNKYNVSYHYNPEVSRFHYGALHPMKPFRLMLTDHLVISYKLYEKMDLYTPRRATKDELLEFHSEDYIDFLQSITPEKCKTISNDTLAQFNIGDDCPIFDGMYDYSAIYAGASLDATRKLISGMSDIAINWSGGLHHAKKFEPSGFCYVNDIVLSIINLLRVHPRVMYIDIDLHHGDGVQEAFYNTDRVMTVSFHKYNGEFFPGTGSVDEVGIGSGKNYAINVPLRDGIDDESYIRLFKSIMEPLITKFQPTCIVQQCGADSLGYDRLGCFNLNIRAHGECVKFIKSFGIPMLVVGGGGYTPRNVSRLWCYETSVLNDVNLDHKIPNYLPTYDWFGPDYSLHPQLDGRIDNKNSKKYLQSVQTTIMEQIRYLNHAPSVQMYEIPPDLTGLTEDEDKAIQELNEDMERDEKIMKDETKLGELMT
UniProt A0A1D8PFV9: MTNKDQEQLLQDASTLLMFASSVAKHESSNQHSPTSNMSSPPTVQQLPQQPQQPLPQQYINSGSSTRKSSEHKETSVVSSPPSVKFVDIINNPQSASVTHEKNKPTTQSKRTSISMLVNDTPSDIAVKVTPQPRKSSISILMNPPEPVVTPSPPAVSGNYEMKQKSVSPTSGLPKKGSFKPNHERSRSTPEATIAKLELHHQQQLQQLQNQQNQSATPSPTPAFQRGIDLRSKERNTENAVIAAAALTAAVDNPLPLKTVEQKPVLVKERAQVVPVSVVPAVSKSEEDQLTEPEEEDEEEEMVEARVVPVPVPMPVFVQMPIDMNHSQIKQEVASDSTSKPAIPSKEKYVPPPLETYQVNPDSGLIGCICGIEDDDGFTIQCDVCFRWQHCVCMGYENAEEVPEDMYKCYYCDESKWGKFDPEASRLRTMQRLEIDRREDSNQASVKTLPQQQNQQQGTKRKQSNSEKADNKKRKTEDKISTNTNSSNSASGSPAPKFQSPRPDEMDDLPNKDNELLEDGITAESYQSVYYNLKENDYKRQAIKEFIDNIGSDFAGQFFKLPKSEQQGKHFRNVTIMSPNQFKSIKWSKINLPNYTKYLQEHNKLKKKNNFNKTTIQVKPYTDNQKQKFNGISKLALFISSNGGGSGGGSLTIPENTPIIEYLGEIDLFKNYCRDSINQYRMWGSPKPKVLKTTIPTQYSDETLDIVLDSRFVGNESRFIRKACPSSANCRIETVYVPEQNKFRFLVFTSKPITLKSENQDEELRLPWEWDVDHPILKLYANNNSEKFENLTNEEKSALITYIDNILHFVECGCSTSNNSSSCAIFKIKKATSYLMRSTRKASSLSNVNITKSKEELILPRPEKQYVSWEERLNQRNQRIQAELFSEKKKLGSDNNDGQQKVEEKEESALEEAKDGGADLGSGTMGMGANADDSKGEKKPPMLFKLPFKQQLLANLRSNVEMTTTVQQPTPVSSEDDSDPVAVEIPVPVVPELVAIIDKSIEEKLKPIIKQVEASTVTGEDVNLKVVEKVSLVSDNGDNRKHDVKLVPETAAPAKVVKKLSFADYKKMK
UniProt A0A1D8PFD3: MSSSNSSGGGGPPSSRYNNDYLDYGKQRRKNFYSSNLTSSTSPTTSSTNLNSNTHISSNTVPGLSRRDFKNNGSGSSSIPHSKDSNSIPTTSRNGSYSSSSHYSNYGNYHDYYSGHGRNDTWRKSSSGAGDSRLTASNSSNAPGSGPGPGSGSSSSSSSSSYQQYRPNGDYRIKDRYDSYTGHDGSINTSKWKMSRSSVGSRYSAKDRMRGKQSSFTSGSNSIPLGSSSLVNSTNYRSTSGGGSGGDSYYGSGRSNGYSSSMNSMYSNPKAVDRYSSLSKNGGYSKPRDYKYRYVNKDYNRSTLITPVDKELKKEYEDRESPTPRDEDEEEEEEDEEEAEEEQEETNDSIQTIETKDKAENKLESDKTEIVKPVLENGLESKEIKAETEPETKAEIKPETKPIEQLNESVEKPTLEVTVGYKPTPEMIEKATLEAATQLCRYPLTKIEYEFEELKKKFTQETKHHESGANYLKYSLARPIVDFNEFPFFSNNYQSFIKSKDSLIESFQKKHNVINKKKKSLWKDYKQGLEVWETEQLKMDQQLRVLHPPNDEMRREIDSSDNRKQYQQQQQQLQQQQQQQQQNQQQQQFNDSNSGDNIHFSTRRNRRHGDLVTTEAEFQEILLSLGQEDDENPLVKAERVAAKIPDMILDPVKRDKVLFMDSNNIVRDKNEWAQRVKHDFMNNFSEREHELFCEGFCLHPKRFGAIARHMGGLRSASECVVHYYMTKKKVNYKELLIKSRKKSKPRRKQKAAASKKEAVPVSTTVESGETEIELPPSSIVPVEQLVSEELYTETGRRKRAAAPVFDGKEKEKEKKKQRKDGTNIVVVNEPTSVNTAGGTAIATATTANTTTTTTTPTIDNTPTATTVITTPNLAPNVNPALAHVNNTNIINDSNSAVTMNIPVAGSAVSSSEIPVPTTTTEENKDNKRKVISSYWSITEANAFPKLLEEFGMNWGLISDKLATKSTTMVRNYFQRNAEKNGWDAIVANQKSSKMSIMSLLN

Key:
Set3-3HA (C. albicans) = assay: affinity purification with mass spectrometry; Set3-3HA or Hos2-3HA immunoprecipitated from whole cell extracts with anti-HA (3F10) agarose beads, overnight at 4°C; stringent lysis buffer (PBS with 300 mM NaCl, 1% Triton X-100, 2 mM DTT), six washes; SDS-PAGE, silver-stained bands identified by mass spectrometry
Hos2-3HA (C. albicans) = assay: as above

| binding (Set3-3HA (C. albicans)) | binding (Hos2-3HA (C. albicans)) | Substance |
| --- | --- | --- |
| binds |  | Hos2 (from UniProt A0A1D8PJ17 1-454) |
|  | binds | Set3 (from UniProt A0A1D8PFV9) |
| binds | binds | Snt1 (from UniProt A0A1D8PFD3 1-1001) |
